The results in this text go back to PMC7565926.

By UniProt entry, the sequences of proteins in these tests, tags left out. Where a name states a change or a piece, a line headed by the entry shows the natural chain unless it says otherwise. Residues count along the entry.
UniProt P10242: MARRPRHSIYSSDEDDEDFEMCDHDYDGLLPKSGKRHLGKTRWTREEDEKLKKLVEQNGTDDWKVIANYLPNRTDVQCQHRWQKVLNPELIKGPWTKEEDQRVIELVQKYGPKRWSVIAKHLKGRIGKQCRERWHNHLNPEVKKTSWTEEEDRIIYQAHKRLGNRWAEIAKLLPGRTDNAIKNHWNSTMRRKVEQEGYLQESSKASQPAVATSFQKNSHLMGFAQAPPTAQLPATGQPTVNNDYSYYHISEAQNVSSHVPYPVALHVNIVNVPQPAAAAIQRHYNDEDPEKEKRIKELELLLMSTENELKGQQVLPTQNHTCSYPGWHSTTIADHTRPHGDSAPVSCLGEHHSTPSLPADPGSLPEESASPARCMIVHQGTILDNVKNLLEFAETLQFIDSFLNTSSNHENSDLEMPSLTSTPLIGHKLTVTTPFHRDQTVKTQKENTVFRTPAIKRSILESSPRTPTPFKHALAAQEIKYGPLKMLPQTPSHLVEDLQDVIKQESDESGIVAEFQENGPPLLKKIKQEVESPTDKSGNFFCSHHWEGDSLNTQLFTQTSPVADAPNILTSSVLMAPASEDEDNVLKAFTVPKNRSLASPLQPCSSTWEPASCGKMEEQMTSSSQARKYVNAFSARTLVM
GST-Myb 1-212: residues 1-212 of P10242
GST-Myb 62-201: residues 62-201 of P10242

Experiment [1] addresses T1, GST-NR4A3 ligand binding domain (GST 360-626) (UniProt Q92570).
T1 sequence: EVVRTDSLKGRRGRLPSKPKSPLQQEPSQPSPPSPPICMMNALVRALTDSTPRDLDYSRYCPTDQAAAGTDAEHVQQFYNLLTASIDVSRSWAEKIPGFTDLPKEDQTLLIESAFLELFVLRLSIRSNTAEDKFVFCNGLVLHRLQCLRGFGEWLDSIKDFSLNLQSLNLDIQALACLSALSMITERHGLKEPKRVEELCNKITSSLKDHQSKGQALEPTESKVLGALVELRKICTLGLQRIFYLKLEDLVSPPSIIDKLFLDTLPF
Description: pull-down; GST fusion protein (1-2 micrograms) bound to glutathione agarose beads, incubated overnight at 4 °C with 10 uL in vitro translation in NETN buffer; bound proteins detected by immunoblot with anti-HA or anti-MYB; only the target purified. In general terms: In western blotting, separated proteins are transferred to a membrane and probed.

The target of experiment [2] is GST-Myb 1-212 (UniProt P10242). The experiment is described as above.
Experiment [3] concerns the target GST-Myb 62-201 (UniProt P10242). The experiment is described as above.
Experiment [4] addresses HA-tagged NR4A3 (UniProt Q92570). Briefly: co-IP; Cos-7 cells co-transfected with HA-tagged NR4A3 and Myb; whole cell extract in RIPA buffer (50 mM Tris HCl pH 8.0, 150 mM NaCl, 2 mM EDTA, 1% NP-40, 0.5% deoxycholate, 0.1% SDS); immunoprecipitated overnight with anti-HA or control IgG; blot with anti-Myb.

These are yes or no findings as the source states them, for the method shown. In cells and extracts the contact can be indirect. Some entries that bind do so weakly or less than the wild type. For some of these results: Sequences can lack the tags named with a protein.

With “In vitro transcribed/translated full-length Myb protein (from UniProt P10242 1-640)”, the binding result in experiment [1] is “binds”.
Consider “In vitro transcribed/translated full-length NR4A3 (HA-tagged) (from UniProt Q92570 1-626)”, for which the binding entry in experiment [2] and in experiment [3] was “binds” each time.
For the substance Myb (from UniProt P10242 1-640), the binding result in experiment [4] is recorded as “binds”.
